The list shows a part of the results.
compound: Cc1cc(ccc1-c1ccccc1)C(=O)N1CCCN(CC1)C(=O)CCl [compound 10]; experiment: probe-labelled cysteine peptide fold change vs DMSO (competition) (log2 fold change); higher = less target engagement (more negative = stronger competition); conditions: 10 µM; THP-1; incubation time: 4 h
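Further: competitive profiling in live THP-1 cells: cysteine peptides tagged with an iodoacetamide desthiobiotin (IA-DTB) probe, intensity after compound treatment relative to DMSO-treated cells.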

Sequences of proteins named here, by UniProt entry; tags and fusion partners are left off. A change or cut given only in a name is not applied to a line headed by its entry.
UniProt Q9NPG3, whole entry, looked up: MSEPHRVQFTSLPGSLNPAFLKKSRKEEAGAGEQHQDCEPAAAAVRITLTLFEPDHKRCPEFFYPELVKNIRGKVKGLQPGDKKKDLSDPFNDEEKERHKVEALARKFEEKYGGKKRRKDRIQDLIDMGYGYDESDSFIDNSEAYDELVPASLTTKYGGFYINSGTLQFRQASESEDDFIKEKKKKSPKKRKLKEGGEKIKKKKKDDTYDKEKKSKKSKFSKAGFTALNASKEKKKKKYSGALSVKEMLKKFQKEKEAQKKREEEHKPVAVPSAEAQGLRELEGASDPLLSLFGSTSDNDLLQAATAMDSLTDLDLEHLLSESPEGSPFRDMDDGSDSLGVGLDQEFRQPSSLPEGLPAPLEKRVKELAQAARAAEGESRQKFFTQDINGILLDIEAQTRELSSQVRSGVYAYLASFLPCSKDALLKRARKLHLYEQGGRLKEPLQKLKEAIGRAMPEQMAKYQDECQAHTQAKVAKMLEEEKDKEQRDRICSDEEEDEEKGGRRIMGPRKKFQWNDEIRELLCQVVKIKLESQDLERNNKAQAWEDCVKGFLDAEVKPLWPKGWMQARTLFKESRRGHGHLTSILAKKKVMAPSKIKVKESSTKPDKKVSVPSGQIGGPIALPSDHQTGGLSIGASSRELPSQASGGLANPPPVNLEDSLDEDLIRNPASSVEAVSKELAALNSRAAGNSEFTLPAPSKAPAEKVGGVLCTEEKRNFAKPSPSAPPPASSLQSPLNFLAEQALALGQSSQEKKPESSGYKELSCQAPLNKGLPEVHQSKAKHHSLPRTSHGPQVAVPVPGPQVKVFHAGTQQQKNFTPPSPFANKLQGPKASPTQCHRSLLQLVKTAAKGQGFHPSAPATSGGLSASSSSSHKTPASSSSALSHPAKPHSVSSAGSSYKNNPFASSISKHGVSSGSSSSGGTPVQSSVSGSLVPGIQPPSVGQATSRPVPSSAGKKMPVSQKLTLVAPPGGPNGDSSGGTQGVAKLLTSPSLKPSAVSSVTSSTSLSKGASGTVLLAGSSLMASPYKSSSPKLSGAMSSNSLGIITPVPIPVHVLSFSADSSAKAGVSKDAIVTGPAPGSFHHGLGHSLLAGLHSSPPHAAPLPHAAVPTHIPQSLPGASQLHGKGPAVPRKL
UniProt P41226: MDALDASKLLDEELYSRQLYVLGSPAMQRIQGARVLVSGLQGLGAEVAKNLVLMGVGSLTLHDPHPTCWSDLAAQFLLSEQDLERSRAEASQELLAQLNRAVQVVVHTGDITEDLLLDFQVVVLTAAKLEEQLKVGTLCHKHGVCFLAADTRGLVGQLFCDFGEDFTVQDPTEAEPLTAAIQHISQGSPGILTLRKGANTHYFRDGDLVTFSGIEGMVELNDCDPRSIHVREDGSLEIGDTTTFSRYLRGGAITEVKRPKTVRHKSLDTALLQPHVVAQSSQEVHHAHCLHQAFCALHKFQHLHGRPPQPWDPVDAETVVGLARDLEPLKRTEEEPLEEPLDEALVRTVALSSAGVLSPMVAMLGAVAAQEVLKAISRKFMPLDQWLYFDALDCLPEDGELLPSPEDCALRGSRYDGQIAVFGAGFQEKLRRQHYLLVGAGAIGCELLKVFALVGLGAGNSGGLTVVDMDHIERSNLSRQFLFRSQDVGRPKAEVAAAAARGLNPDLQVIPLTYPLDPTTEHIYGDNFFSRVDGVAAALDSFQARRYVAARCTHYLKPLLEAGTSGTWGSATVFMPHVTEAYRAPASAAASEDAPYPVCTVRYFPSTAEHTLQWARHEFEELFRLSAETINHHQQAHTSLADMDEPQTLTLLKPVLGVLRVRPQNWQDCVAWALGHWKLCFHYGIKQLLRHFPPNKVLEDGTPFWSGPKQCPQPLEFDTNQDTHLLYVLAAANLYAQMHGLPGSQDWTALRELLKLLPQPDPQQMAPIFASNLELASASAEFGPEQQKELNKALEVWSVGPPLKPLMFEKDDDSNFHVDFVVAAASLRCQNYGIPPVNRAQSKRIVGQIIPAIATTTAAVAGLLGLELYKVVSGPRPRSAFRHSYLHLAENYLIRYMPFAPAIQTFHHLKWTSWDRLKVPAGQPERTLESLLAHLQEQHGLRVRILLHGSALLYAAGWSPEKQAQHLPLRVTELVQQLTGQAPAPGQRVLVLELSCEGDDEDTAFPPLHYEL
UniProt Q9BZL1: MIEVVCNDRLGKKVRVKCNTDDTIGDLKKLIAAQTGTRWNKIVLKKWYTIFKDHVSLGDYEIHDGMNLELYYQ
UniProt O43396: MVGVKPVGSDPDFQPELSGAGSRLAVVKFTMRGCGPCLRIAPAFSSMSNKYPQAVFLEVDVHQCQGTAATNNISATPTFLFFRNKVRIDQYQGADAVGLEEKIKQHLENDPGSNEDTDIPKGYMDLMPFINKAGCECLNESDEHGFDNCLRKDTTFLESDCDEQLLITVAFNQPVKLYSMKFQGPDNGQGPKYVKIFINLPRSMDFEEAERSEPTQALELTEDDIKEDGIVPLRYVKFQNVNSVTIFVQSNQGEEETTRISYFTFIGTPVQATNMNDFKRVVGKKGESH
UniProt Q15819: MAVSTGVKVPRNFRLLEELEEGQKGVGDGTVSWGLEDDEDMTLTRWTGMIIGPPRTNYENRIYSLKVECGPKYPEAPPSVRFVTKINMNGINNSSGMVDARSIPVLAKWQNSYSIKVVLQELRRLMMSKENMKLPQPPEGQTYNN
UniProt P51965: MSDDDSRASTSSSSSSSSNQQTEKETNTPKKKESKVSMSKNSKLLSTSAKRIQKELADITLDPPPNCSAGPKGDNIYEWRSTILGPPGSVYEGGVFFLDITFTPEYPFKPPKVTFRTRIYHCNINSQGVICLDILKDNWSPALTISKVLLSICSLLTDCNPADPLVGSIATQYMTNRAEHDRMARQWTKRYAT
UniProt Q13404: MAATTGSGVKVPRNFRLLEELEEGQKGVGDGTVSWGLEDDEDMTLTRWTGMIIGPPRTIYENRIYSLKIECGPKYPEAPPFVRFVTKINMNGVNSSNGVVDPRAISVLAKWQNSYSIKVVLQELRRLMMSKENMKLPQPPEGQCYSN
UniProt Q14139: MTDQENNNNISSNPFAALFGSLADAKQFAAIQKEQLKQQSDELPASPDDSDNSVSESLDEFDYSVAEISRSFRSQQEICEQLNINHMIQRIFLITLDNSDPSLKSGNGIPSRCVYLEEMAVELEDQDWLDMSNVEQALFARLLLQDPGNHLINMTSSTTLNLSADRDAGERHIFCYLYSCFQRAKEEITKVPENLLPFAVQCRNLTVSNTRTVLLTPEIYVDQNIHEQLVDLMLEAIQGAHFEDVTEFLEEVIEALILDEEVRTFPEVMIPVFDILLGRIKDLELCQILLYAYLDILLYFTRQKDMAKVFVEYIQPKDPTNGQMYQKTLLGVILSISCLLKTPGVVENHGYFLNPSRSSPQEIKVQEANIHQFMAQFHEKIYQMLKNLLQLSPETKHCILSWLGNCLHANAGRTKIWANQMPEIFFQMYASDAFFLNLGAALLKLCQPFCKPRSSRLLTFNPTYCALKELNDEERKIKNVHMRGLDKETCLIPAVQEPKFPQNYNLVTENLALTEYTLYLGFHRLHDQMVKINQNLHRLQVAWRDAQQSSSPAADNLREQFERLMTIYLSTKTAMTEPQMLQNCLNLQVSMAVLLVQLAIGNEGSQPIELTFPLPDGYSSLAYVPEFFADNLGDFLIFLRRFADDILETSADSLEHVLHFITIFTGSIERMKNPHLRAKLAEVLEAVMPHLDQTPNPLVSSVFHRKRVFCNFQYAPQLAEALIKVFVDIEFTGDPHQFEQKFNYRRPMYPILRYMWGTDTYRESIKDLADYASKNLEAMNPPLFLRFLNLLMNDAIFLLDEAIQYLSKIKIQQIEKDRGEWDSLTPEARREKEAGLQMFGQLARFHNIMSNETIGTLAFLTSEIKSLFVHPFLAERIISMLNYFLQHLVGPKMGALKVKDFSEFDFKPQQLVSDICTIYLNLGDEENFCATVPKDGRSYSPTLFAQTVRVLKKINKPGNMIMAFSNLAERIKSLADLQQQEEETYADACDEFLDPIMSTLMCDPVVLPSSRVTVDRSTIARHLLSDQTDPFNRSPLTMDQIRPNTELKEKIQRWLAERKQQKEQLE
UniProt Q9NNW7, whole entry, looked up: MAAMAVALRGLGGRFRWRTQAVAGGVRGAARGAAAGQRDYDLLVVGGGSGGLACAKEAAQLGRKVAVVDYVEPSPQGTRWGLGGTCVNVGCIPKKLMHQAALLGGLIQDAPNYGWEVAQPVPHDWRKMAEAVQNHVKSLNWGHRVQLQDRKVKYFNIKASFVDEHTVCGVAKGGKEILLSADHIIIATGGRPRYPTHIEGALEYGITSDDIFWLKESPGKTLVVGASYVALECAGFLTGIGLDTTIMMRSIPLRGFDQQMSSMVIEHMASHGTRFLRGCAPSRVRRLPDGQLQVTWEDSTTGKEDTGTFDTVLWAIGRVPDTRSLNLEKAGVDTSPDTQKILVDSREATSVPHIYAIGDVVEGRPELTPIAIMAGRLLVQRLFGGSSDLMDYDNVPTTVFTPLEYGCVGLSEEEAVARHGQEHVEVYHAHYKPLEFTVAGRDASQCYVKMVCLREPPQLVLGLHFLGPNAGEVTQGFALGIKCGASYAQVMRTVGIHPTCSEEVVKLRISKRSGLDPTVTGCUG
UniProt Q3KQV9: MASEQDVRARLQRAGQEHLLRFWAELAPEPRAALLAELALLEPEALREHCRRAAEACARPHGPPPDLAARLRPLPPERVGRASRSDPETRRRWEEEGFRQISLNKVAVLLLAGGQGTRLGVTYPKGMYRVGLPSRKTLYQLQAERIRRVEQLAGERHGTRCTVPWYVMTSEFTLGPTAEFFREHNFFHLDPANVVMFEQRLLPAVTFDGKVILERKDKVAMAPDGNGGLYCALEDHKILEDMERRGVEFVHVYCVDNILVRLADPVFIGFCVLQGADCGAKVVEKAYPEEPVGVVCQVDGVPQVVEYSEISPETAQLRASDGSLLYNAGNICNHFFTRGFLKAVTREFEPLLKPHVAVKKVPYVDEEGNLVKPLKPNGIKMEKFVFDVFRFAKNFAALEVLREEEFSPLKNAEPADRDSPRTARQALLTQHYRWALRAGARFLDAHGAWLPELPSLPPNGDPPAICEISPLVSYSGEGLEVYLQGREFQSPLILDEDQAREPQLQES
UniProt P61081: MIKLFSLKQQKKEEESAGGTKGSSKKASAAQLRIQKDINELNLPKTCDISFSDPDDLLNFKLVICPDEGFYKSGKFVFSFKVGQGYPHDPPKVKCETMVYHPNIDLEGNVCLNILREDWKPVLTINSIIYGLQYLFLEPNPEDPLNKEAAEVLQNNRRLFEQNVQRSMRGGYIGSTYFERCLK
UniProt Q712K3: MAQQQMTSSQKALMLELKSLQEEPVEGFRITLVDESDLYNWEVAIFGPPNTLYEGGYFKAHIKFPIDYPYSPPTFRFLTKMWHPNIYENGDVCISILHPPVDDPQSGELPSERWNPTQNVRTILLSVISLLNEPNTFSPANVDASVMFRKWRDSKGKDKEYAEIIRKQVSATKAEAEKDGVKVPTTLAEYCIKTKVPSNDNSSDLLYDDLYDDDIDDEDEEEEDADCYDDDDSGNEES
UniProt P22314: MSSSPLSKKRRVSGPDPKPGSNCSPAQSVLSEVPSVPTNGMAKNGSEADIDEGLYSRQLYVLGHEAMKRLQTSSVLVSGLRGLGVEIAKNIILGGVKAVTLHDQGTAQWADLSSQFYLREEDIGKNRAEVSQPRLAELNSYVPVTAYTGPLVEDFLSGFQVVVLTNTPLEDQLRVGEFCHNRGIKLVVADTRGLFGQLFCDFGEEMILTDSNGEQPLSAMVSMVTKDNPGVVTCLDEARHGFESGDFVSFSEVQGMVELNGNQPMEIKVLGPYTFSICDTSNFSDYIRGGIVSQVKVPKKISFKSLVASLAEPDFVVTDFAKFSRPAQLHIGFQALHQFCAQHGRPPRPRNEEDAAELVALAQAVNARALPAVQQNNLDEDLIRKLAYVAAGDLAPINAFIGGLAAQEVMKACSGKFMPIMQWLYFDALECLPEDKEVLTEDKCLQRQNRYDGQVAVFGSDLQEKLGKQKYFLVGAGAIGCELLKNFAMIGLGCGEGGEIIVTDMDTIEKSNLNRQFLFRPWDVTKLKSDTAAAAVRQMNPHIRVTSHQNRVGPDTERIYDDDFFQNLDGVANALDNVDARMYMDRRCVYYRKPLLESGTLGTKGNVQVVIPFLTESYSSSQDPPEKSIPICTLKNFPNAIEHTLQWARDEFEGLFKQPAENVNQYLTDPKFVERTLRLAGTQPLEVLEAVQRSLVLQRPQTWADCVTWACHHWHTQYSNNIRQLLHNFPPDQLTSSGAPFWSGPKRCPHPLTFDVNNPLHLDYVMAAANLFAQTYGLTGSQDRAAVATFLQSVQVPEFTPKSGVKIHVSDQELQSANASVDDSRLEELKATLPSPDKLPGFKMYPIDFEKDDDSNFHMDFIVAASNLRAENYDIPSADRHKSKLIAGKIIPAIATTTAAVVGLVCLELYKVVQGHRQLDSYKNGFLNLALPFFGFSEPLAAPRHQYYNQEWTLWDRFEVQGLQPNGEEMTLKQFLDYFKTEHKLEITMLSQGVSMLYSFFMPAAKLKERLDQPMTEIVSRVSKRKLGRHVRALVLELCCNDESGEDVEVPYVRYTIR

Row | Target | probe-labelled cysteine peptide fold change
1 | UBR2_Q8IWV8_115_DCAVDPTCVLCMECFLGSIHR (UniProt Q8IWV8) | 0.0608
2 | UBN1_Q9NPG3_837_ASPTQCHR (UniProt Q9NPG3) | -0.0699
3 | UBA7_P41226_829_CQNYGIPPVNR (UniProt P41226) | -0.03
4 | TYK2_P29597_1140_CPCEVYHLMK (UniProt P29597) | -0.383
5 | UBR4_Q5T4S7_2688_IYMQMLLCPDPAVSFSCK (UniProt Q5T4S7) | -0.082
6 | UBE2L6_O14933_102_TCQVLEALNVLVNRPNIREPLR (UniProt O14933) | -0.369
7 | UBR5_O95071_572_VGVLMESVWNMNDSCR (UniProt O95071) | -0.0405
8 | UBAP1_Q9NZ09_434_GENIEQILDYLFAHGQLCEK (UniProt Q9NZ09) | 0.223
9 | UBL5_Q9BZL1_18_CNTDDTIGDLK (UniProt Q9BZL1) | 0.202
10 | UBR4_Q5T4S7_2618_QLEGDCCSFITQLVNHFWK (UniProt Q5T4S7) | 0.117
11 | UBR1_Q8IWV7_1577_WCADPALLNCLK (UniProt Q8IWV7) | 0.0611
12 | UBA6_A0AVT1_581_CLANLRPLLDSGTMGTK | 0.0392
13 | TXNL1_O43396_149_AGCECLNESDEHGFDNCLRK (UniProt O43396) | -0.189
14 | UBE2V2_Q15819_69_VECGPKYPEAPPSVR (UniProt Q15819) | -0.0381
15 | UBE2E1_P51965_122+131_IYHCNINSQGVICLDILK (UniProt P51965) | -0.13
16 | UBE2V1_Q13404_71_IECGPK (UniProt Q13404) | -0.048
17 | UBR4_Q5T4S7_1900_RVAMCVLSSPHGR (UniProt Q5T4S7) | -0.0283
18 | UBA6_A0AVT1_231_EIFISNITQANPGIVTCLENHPHKLETGQFLTFR | 0.0113

Row | Target | probe-labelled cysteine peptide fold change
19 | UBE4A_Q14139_175_HIFCYLYSCFQR (UniProt Q14139) | -0.0734
20 | UBA3_Q8TBC4_28_MAVDGGCGDTGDWEGR (UniProt Q8TBC4) | -0.245
21 | UBR4_Q5T4S7_122_LENPDEACAVSQK (UniProt Q5T4S7) | -0.41
22 | TXNRD2_Q9NNW7_54_DYDLLVVGGGSGGLACAK (UniProt Q9NNW7) | -0.0642
23 | UBR4_Q5T4S7_1962_LASAPVPFTVLSLTGNPCK (UniProt Q5T4S7) | -0.0379
24 | UBAP2_Q5T6F2_71_NQDECIVALHDCNGDVNK (UniProt Q5T6F2) | 0.0613
25 | UBR1_Q8IWV7_99_HSGAFQLCGR (UniProt Q8IWV7) | -0.0461
26 | UBR4_Q5T4S7_4839+4841_QMEELIEEPGLTCCICR (UniProt Q5T4S7) | 0.22
27 | UAP1L1_Q3KQV9_57_AAEACAR (UniProt Q3KQV9) | 0.00283
28 | UBE2M_P61081_111_CETMVYHPNIDLEGNVCLNILR (UniProt P61081) | 0.159
29 | UBE2R2_Q712K3_191_VPTTLAEYCIK (UniProt Q712K3) | -0.145
30 | UBN1_Q9NPG3_467_YQDECQAHTQAK (UniProt Q9NPG3) | 0.0477
31 | UBASH3B_Q8TF42_130+135_AHNIFPHITLCQFFMCEDSKVDALGEALQTTVSR (UniProt Q8TF42) | -0.171
32 | UBASH3B_Q8TF42_474_CVQTAHNILK (UniProt Q8TF42) | -0.16
33 | UBAP1_Q9NZ09_434_KGENIEQILDYLFAHGQLCEK (UniProt Q9NZ09) | 0.108
34 | UBA1_P22314_1040_ALVLELCCNDESGEDVEVPYVR (UniProt P22314) | 0.0912
35 | UBR4_Q5T4S7_1033_TYINQLSMNSPEMSECDILHTLR (UniProt Q5T4S7) | -0.0865
36 | TXNL1_O43396_135+137_AGCECLNESDEHGFDNCLRK (UniProt O43396) | -0.534

same assay, conditions: 50 µM; THP-1; incubation time: 4 h

Row | Target | probe-labelled cysteine peptide fold change
37 | UBR2_Q8IWV8_115_DCAVDPTCVLCMECFLGSIHR (UniProt Q8IWV8) | 0.0281
38 | UBN1_Q9NPG3_837_ASPTQCHR (UniProt Q9NPG3) | -1.04
39 | UBA7_P41226_829_CQNYGIPPVNR (UniProt P41226) | 0.153
40 | TYK2_P29597_1140_CPCEVYHLMK (UniProt P29597) | -0.903
41 | UBR4_Q5T4S7_2688_IYMQMLLCPDPAVSFSCK (UniProt Q5T4S7) | -0.0807
42 | UBE2L6_O14933_102_TCQVLEALNVLVNRPNIREPLR (UniProt O14933) | -0.301
43 | UBR5_O95071_572_VGVLMESVWNMNDSCR (UniProt O95071) | 0.0537
44 | UBAP1_Q9NZ09_434_GENIEQILDYLFAHGQLCEK (UniProt Q9NZ09) | 0.368
45 | UBL5_Q9BZL1_18_CNTDDTIGDLK (UniProt Q9BZL1) | -0.104
46 | UBR4_Q5T4S7_2618_QLEGDCCSFITQLVNHFWK (UniProt Q5T4S7) | -0.179
47 | UBR1_Q8IWV7_1577_WCADPALLNCLK (UniProt Q8IWV7) | -0.0474
48 | UBA6_A0AVT1_581_CLANLRPLLDSGTMGTK | -0.0292
49 | TXNL1_O43396_149_AGCECLNESDEHGFDNCLRK (UniProt O43396) | -0.0731
50 | UBE2V2_Q15819_69_VECGPKYPEAPPSVR (UniProt Q15819) | -0.597
51 | UBE2E1_P51965_122+131_IYHCNINSQGVICLDILK (UniProt P51965) | 0.433
52 | UBE2V1_Q13404_71_IECGPK (UniProt Q13404) | -0.193
53 | UBR4_Q5T4S7_1900_RVAMCVLSSPHGR (UniProt Q5T4S7) | 0.186
54 | UBA6_A0AVT1_231_EIFISNITQANPGIVTCLENHPHKLETGQFLTFR | 0.231

Row | Target | probe-labelled cysteine peptide fold change
55 | UBE4A_Q14139_175_HIFCYLYSCFQR (UniProt Q14139) | 0.337
56 | UBA3_Q8TBC4_28_MAVDGGCGDTGDWEGR (UniProt Q8TBC4) | -0.0349
57 | UBR4_Q5T4S7_122_LENPDEACAVSQK (UniProt Q5T4S7) | 0.432
58 | TXNRD2_Q9NNW7_54_DYDLLVVGGGSGGLACAK (UniProt Q9NNW7) | -0.125
59 | UBR4_Q5T4S7_1962_LASAPVPFTVLSLTGNPCK (UniProt Q5T4S7) | 0.0709
60 | UBAP2_Q5T6F2_71_NQDECIVALHDCNGDVNK (UniProt Q5T6F2) | -0.0464
61 | UBR1_Q8IWV7_99_HSGAFQLCGR (UniProt Q8IWV7) | 0.0566
62 | UBR4_Q5T4S7_4839+4841_QMEELIEEPGLTCCICR (UniProt Q5T4S7) | 0.247
63 | UAP1L1_Q3KQV9_57_AAEACAR (UniProt Q3KQV9) | 0.0362
64 | UBE2M_P61081_111_CETMVYHPNIDLEGNVCLNILR (UniProt P61081) | -0.000674
65 | UBE2R2_Q712K3_191_VPTTLAEYCIK (UniProt Q712K3) | -0.321
66 | UBN1_Q9NPG3_467_YQDECQAHTQAK (UniProt Q9NPG3) | -0.0227
67 | UBASH3B_Q8TF42_130+135_AHNIFPHITLCQFFMCEDSKVDALGEALQTTVSR (UniProt Q8TF42) | -0.513
68 | UBASH3B_Q8TF42_474_CVQTAHNILK (UniProt Q8TF42) | -0.0515
69 | UBAP1_Q9NZ09_434_KGENIEQILDYLFAHGQLCEK (UniProt Q9NZ09) | 0.123
70 | UBA1_P22314_1040_ALVLELCCNDESGEDVEVPYVR (UniProt P22314) | 0.0492
71 | UBR4_Q5T4S7_1033_TYINQLSMNSPEMSECDILHTLR (UniProt Q5T4S7) | 0.0548
72 | TXNL1_O43396_135+137_AGCECLNESDEHGFDNCLRK (UniProt O43396) | -0.915
